# Screening data, single-dose tests

The chains behind the UniProt entries cited, without tags or fusion partners. Residues count along the entry.
UniProt A4I591, 1-473: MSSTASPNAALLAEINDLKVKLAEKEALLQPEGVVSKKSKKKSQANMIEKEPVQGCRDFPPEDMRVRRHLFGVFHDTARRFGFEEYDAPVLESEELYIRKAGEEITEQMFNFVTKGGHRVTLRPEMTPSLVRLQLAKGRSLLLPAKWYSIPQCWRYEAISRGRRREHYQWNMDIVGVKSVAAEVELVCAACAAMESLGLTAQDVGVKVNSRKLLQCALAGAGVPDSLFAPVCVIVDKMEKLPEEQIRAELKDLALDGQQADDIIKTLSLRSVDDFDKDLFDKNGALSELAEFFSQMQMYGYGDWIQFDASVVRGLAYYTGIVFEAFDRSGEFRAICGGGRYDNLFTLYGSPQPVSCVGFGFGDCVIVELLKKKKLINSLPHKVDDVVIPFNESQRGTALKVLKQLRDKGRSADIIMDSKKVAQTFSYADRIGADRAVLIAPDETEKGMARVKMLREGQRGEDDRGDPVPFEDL
UniProt Q8IDJ8, 1-583: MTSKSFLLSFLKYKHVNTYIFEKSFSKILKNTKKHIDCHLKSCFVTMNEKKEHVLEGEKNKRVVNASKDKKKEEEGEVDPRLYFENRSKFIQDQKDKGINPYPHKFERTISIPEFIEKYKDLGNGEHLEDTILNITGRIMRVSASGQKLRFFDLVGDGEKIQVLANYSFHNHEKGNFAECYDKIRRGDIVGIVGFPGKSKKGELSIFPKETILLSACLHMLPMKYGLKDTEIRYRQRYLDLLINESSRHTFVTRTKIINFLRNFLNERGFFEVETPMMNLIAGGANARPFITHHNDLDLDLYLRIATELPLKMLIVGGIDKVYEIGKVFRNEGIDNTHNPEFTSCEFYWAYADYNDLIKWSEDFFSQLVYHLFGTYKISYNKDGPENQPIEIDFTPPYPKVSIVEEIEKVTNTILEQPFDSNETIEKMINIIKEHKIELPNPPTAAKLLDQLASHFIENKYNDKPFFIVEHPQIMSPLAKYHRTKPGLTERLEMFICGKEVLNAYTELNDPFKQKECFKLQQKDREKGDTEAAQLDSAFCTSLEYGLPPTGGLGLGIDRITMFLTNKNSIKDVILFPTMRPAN

The filed quantity is “Percent Effect” (%).
The record does not define 0% and 100%; most values in the screen are far below 50% and negative numbers occur (in some assays of this library far below -100).
This is an unselected part of the compounds tested.

LiHisRS: 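Enzyme assay of histidyl-tRNA synthetase; the read-out is not stated. Target: Histidine-tRNA ligase, Leishmania infantum (UniProt A4I591). Tested at 30 µM. Direction is inferred from retests: higher values go with stronger inhibition. The assay is labelled LdHisRS but filed under L. infantum. About 69,000 compounds were tested under these conditions; 0.6% (about 410) showed 50% or more at least once.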
PfKRS1: 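Enzyme assay of the cytosolic lysyl-tRNA synthetase in 384-well plates, read by luminescence. Target: Lysine-tRNA ligase, Plasmodium falciparum 3D7 (UniProt Q8IDJ8). Compounds at 30 µM. Higher reads as stronger inhibition, judged from the few compounds that gave an IC50. Size under these conditions: about 69,000 compounds, about 49 of them at 50% or above in at least one test.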

compound,LiHisRS,PfKRS1
CC1CCN(c2ncc(-c3ccccc3F)c(-c3nccn3C)n2)CC1,0,0.44
CN1CCNC(=O)C1CC(=O)NCCc1cnn(-c2ccccc2)c1 (stereo not shown),0,-6.519
CC(C)N1c2sc(-c3ccsc3)nc2CC1C(=O)NC1CC1 (stereo not shown),30,-1.497
c1ccc(-c2nc(CN3CCCC(Cn4cncn4)C3)co2)cc1 (stereo not shown),18.92,-3.629
CC(C)(C)n1cc(NCc2cscn2)cn1,17.12,7.151
CC(C)Oc1cc(N2CCC(C(N)=O)CC2)nc(N)n1,12.12,2.822
CN1C(=O)CC(c2cnn(C)c2)C12CCN(C(=O)c1ccno1)CC2 (stereo not shown),21.1,0.6919
COc1ccc(OCc2nc(C(=O)N3CC[C@H](O)[C@@H](O)C3)co2)cc1,23.08,5.643
c1cc(-c2c[nH]c([C@@H]3COCCN3Cc3ncc[nH]3)n2)ccn1,29.73,3.121
Cc1nc(CN2CCO[C@@H]3CN(Cc4nccs4)C[C@@H]3C2)cs1,10.91,5.166
COCCN(C)C[C@@H]1CN(c2nc(C)cc(C)n2)C[C@@H]1CO,6.024,-1.475
CNC(=O)C1(c2cnccn2)CCCN1C(=O)Cc1ccsc1 (stereo not shown),11.59,1.921
CC(C)=CCS(=O)(=O)Cc1nc(C(C)C)no1,4.255,-0.5589
Cn1cc(CN2C[C@@H](N3CCCC3=O)[C@H]3OCCC[C@H]32)cn1,7.018,4.459
CCn1nc(C)c2nc(C(C)C)nc(NCCCn3ccnc3)c21,12.07,4.246
O=C(CCc1cccnc1)N1CCC2(CCN(CC3CCCC3)C2)C1 (stereo not shown),4.425,-4.062
Cc1ccc(-c2nnc(CCC(=O)NCc3cn(C)nc3C)o2)s1,2.941,8.808
CCn1c(C)nc2cc(NC(=O)C3CN(C(C)=O)C3)ccc21,7.246,1.38
CC(C)C1=NOC2(CCN(S(C)(=O)=O)CC2)C1,9.655,-2.754
Cc1nc(CN(C)c2nccc(C(F)(F)F)n2)cs1,12.4,5.065
CN1CCCC1c1ccc(N2CCOCC2)cn1 (stereo not shown),13.42,-0.7768
CCCc1cc(N2CCC(N[C@H]3CC[C@H](O)CC3)CC2)nc(C)n1,9.167,2.852
O=C(NCCc1ccncc1)[C@@H]1CC[C@@H]2[C@@H](CCN2Cc2ccco2)O1,20,2.436
Cc1cc(CN(C)c2nc(-c3ccco3)nc3c2CCN(C)CC3)on1,18.07,-0.05547
NC(=O)C1(c2cnccn2)CCCN1C(=O)Cc1ccsc1 (stereo not shown),8.696,1.665
CCN1CCOC(CNCc2ccc(OCc3ccccn3)cc2)C1 (stereo not shown),16.51,2.805
Cc1cncc(C(=O)N(c2ccc(F)cn2)C2CCOCC2)c1,18.31,0.2708
O=C(C1SCCc2ccccc21)N1CCC(O)CC1 (stereo not shown),19.48,6.806
CS(=O)(=O)Nc1cccc(CNC(=O)c2cccs2)c1,4.839,3.022
O=C(CSc1nnc[nH]1)NCc1cccs1,9.859,2.33
Cc1ccc(C)c(CC(=O)Nc2cccc(C(=O)N(C)C)n2)c1,17.11,5.104
COCCOc1ncccc1C(=O)N(C)c1ccc(OC)c(OC)c1,6.593,2.625
Cc1nccc([C@H]2C[C@@H]3CCN(C(=O)c4c(C)noc4C)C[C@H]3O2)n1,10.91,12.98
CN1CC[C@H]2CN(C(=O)c3ccc4sc5c(c4c3)CCNC5=O)C[C@H]21,20,5.307
COCCN1CCO[C@H]2CN(C(=O)c3cccs3)C[C@H]21,5.128,1.367
O=C(CC1=CSC2=NCCCN12)N1CCCCC1c1cccc(F)c1 (stereo not shown),8.602,4.164
Cc1ccc([C@H]2CN(C(=O)CC3CCC3)C[C@@H]2N)o1,21.43,4.796
CC(=O)N1CCN(c2nc(C(F)(F)F)nc3sc(C)c(C)c23)CC1,29.29,9.032
O=S(=O)(Cc1ccc(F)cc1F)NCCOc1cccnc1,7.895,3.613
CC(c1nc(C2CC2)no1)N1CCN(CCS(C)(=O)=O)CC1 (stereo not shown),12.04,-2.883
CN1CCC(Nc2cc(Cl)ccc2OCC(F)(F)F)C1=O (stereo not shown),6.218,3.936
CCc1n[nH]c(C2CN(C(=O)Cc3cccs3)CCO2)n1 (stereo not shown),15.38,-3.39
Cc1cccc(OC2CCN(C(=O)Cn3ccc4ccccc43)CC2)n1,6.957,2.003

Once more, the final 5:

| compound | LiHisRS | PfKRS1 |
|---|---|---|
| `O=S(=O)(Cc1ccc(F)cc1F)NCCOc1cccnc1` | 7.895 | 3.613 |
| `CC(c1nc(C2CC2)no1)N1CCN(CCS(C)(=O)=O)CC1` (stereo not shown) | 12.04 | -2.883 |
| `CN1CCC(Nc2cc(Cl)ccc2OCC(F)(F)F)C1=O` (stereo not shown) | 6.218 | 3.936 |
| `CCc1n[nH]c(C2CN(C(=O)Cc3cccs3)CCO2)n1` (stereo not shown) | 15.38 | -3.39 |
| `Cc1cccc(OC2CCN(C(=O)Cn3ccc4ccccc43)CC2)n1` | 6.957 | 2.003 |

Source: ChEMBL document CHEMBL3988442, “University of Dundee, Small-Polar-MMV Screening Library” (2021).